According to patent US20090099105:
The exact form of at least one protein or probe is not confirmed. Tags and fusion partners may be left off the protein sequences shown.

Target: T1, APOBEC-1 complementation factor (ACF) (UniProt Q9NQ94)
T1 sequence (looked up, limits assumed): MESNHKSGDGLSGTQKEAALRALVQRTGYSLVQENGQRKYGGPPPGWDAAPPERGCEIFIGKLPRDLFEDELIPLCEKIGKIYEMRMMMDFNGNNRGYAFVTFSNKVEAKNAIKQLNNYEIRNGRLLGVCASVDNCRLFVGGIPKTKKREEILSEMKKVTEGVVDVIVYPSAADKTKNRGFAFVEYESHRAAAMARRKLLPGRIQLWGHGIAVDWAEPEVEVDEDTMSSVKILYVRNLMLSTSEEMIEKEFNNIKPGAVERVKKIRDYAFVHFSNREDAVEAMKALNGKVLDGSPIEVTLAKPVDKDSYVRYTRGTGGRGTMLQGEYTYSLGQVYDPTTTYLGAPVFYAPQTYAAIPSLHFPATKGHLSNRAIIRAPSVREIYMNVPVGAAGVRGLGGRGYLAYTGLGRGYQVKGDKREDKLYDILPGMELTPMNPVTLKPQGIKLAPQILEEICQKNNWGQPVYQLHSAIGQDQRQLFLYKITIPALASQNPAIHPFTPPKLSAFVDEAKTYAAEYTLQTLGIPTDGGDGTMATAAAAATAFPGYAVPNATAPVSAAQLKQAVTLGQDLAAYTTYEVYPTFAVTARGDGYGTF
Test: binding assay
Details: CITED background value, no experiment described; source of protein not stated; flanks deaminated C6666; purified recombinant protein

## UGAUCAGUAUA [apoB mRNA mooring sequence]
  Kd: 8 nM
